These are yes or no findings as the source states them, for the method shown. Binding seen in cells or lysates may run through a third protein. These calls come from enrichment with a bait or labelling near it, and not all partners need be listed. For some assays here: No binding means not detected with the bait. For some assays here: Sequences can lack the tags named with a protein. Each block holds one molecule with its values, some of them ahead of it.
Experiments:
[1] = biological target: T1, UltraID_ZFP36L1 (UltraID fused to the N-terminus of ZFP36L1, co-expressed with GFP through P2A) (UniProt Q07352); test: proximity labelling; UltraID_L1 in retrovirally transduced primary human T cells, rested or re-activated 16 h with αCD3/αCD28, with or without 500 μM biotin; biotinylated proteins captured from lysate on streptavidin beads and identified by MS; controls UltraID_GFP and no biotin; T cell screens 1 and 2 (the network of Fig 3A also draws on the Jurkat screen)
T1 sequence: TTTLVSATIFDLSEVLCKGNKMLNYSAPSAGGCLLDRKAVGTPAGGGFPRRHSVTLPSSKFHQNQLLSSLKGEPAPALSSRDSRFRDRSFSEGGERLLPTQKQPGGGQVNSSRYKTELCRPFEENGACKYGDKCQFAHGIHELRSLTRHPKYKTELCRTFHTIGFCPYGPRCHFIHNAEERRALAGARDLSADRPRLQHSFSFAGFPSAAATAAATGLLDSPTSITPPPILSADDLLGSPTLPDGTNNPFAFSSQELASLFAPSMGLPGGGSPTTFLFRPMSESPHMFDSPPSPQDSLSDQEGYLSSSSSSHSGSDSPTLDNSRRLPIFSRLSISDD

Sequences of proteins named here, by UniProt entry; tags and fusion partners are left off.
UniProt Q13283: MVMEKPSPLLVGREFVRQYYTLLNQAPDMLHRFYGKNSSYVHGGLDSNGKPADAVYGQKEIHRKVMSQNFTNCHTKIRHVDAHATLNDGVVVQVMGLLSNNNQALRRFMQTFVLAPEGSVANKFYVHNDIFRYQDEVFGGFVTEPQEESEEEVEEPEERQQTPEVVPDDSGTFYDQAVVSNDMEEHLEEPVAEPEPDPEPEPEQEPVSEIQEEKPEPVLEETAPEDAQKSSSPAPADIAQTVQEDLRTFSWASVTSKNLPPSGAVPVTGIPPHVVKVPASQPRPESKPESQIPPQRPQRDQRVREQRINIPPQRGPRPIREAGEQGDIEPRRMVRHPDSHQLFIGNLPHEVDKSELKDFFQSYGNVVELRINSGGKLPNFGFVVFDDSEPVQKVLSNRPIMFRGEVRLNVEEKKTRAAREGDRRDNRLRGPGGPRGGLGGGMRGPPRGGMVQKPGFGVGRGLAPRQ
UniProt Q14157: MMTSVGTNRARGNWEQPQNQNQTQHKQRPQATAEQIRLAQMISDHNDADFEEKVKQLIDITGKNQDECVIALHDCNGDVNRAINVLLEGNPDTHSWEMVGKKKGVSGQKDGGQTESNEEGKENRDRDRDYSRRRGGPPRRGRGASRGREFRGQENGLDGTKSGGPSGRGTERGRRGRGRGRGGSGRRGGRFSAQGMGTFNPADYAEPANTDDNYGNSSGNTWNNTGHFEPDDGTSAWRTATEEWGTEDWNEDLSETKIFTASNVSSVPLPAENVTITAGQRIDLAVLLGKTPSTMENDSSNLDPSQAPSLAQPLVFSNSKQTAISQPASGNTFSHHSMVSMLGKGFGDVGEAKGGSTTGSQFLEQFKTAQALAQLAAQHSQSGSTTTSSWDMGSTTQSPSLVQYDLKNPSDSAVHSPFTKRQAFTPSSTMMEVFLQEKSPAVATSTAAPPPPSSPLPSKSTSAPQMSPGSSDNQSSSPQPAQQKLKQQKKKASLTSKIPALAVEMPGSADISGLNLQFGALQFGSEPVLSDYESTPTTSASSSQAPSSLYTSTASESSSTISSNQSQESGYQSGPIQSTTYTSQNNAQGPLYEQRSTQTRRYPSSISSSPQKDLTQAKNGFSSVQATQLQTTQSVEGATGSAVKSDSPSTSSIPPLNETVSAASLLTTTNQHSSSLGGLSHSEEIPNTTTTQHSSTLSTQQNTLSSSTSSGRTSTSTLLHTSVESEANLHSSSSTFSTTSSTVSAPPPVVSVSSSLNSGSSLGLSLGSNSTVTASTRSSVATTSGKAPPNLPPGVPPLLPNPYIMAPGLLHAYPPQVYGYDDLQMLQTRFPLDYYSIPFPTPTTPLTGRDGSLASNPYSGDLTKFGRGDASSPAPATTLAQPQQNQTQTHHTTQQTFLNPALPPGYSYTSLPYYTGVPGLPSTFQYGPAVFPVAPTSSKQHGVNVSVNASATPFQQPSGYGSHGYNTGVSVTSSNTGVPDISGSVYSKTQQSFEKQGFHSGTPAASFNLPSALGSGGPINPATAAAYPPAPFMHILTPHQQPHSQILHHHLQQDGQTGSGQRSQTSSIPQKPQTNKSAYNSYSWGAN
UniProt P67809: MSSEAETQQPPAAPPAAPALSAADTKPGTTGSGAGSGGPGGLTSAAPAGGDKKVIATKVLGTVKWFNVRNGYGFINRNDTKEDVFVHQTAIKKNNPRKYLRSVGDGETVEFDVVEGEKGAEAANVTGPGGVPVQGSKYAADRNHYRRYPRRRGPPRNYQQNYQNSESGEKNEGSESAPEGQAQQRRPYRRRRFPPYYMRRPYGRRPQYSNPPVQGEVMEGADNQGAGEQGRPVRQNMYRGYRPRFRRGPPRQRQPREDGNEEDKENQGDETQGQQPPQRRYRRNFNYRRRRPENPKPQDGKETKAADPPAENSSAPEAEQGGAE
UniProt O75175: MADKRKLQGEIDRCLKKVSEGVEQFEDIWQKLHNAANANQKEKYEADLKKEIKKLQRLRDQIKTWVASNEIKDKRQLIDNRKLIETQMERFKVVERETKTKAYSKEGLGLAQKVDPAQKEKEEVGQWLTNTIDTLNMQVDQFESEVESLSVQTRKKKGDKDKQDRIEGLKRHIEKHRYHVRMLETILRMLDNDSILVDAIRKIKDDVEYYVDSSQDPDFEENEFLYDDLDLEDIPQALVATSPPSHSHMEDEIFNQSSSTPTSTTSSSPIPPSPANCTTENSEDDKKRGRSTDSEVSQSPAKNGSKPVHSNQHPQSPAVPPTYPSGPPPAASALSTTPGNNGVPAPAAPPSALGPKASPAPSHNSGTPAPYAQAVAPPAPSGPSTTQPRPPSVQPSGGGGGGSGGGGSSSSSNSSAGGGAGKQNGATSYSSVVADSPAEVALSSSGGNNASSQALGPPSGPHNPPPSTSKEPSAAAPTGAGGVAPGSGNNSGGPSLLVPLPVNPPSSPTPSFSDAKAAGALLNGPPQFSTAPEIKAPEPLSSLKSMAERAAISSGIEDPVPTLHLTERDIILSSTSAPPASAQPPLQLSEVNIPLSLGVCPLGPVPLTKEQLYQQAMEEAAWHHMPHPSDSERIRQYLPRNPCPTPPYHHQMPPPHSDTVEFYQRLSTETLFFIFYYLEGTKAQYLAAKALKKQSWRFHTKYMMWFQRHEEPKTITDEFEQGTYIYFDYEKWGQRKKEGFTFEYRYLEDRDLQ
UniProt O75420: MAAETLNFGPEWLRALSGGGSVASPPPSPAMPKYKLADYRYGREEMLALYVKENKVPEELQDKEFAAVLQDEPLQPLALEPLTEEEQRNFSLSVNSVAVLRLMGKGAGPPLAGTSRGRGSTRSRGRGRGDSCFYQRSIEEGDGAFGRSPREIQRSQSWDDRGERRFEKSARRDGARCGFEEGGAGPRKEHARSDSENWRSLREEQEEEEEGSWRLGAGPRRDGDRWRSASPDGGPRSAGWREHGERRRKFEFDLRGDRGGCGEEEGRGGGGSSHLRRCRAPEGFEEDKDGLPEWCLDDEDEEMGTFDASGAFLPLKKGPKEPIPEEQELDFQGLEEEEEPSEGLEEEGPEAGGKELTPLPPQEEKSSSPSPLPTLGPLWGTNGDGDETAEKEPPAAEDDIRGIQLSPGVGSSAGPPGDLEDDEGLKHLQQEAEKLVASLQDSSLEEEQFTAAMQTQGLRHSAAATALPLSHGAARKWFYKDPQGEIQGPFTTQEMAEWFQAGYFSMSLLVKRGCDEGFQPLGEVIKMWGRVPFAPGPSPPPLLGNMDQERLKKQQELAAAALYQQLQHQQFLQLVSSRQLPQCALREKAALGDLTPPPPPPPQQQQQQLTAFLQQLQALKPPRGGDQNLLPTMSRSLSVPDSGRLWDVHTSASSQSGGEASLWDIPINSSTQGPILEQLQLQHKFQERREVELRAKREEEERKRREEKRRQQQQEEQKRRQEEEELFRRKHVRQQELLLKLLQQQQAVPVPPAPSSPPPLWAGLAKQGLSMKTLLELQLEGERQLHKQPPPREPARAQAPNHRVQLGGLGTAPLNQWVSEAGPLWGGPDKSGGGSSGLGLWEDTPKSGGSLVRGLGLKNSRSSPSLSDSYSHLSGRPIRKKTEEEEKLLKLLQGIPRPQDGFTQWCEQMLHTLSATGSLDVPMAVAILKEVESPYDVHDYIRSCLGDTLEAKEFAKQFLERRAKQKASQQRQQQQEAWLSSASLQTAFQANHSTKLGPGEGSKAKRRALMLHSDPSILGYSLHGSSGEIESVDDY
UniProt Q9BVL2: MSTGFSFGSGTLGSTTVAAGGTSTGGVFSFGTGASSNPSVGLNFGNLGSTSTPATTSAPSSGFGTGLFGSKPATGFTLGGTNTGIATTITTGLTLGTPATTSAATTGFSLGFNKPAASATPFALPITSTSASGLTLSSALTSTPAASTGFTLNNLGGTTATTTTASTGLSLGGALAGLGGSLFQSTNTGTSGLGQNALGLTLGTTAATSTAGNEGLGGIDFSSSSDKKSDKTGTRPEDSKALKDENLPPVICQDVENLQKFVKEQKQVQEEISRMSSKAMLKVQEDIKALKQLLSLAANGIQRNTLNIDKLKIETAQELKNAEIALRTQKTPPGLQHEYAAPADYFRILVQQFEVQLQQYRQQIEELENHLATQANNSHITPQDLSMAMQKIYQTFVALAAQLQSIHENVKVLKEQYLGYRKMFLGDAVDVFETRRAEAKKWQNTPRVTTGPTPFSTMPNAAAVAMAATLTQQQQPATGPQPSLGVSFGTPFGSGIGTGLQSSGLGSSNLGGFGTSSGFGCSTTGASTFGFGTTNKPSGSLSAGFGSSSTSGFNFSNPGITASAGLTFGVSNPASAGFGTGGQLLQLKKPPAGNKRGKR
UniProt Q8NDV7: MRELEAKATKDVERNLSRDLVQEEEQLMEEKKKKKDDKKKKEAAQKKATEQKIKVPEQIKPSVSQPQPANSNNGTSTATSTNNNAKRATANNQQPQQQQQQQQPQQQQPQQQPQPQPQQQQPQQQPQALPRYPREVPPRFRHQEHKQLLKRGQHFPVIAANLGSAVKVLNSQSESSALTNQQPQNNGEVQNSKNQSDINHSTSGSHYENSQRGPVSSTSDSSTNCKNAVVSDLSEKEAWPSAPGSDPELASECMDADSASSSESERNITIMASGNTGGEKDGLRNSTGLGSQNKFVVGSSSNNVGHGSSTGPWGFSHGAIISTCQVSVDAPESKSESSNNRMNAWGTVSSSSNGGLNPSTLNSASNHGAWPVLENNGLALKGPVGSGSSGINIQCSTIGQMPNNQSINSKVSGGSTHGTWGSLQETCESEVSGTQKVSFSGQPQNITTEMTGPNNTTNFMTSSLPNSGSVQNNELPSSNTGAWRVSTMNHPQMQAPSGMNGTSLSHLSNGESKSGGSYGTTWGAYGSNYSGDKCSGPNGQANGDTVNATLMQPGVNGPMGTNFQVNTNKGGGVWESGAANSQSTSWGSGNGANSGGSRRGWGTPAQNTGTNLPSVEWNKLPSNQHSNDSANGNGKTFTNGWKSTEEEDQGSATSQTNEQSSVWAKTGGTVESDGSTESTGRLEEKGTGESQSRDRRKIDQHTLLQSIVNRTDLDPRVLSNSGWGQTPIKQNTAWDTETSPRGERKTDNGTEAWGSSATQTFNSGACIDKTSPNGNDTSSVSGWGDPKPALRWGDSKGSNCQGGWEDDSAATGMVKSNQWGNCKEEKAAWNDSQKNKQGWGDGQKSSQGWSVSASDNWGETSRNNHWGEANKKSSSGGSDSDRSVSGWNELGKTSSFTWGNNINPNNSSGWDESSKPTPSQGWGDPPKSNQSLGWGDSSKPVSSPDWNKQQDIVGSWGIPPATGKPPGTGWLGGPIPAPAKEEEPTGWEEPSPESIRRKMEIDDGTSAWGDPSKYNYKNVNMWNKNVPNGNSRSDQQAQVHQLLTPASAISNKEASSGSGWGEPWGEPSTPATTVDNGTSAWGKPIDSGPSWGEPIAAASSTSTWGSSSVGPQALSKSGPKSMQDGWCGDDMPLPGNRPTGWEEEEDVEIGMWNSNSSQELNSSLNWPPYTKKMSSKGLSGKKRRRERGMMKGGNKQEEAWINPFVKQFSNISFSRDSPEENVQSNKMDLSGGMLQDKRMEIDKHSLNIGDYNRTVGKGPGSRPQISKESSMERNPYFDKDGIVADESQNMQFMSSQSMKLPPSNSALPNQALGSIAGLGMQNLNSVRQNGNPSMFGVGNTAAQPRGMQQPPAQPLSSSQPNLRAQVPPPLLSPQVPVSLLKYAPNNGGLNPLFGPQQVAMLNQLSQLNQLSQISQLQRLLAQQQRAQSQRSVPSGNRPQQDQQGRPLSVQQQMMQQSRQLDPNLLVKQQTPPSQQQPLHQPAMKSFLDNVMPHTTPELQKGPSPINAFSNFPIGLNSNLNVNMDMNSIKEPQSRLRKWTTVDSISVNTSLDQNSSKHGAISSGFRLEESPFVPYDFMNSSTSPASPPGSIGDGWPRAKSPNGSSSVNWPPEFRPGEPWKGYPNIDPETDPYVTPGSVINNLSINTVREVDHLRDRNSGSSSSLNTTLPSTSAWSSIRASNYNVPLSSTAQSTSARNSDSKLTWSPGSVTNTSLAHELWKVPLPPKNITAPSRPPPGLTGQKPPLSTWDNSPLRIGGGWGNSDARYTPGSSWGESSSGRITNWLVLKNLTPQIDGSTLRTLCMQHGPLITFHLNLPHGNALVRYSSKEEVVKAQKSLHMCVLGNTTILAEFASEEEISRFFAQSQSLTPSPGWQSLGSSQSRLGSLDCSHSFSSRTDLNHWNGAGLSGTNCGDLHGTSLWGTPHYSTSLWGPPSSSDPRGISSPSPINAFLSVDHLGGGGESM
UniProt P63104: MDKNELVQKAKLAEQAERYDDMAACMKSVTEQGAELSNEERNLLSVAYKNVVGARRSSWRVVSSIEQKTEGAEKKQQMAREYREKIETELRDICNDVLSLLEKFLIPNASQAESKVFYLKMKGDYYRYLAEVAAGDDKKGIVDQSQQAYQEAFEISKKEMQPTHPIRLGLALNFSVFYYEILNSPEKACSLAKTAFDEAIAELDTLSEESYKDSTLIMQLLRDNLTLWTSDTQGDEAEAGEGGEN

[2] = biological target: T2, ZFP36L1 (human (endogenous in primary T cells)) (UniProt Q07352); test: affinity purification with mass spectrometry; Co-IP of endogenous ZFP36L1 with 10 μg anti-ZFP36L1 (1A3) or IgG control on Protein A Dynabeads, 4 h at 4°C, from cytoplasmic (1% digitonin) lysates of αCD3/αCD28-activated human CD3+ T cells at 0, 2, 5, 16 h; lysates untreated or treated with 200 U/ml RNAse A throughout; MS
T2 sequence: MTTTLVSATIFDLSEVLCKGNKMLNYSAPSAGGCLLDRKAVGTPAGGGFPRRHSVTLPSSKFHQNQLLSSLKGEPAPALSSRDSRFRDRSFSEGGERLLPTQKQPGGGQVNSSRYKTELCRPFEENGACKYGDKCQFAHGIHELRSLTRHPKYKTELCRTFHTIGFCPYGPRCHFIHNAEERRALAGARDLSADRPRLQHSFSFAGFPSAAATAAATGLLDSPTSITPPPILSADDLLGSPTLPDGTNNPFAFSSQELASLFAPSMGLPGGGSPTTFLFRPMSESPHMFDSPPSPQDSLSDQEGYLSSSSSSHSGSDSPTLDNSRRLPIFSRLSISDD

[3] = biological target: T1, UltraID_ZFP36L1 (UltraID fused to the N-terminus of ZFP36L1, co-expressed with GFP through P2A); test: proximity labelling; time course: UltraID_L1 T cells re-activated with αCD3/αCD28 for 0, 2, 5, 16 h; biotin added for 2 h, for 3 h (2-5 h) or for 9 h (5-16 h); streptavidin capture, MS; supervised classification into shapes
[4] = biological target: T1, UltraID_ZFP36L1 (UltraID fused to the N-terminus of ZFP36L1, co-expressed with GFP through P2A); test: proximity labelling; UltraID_L1 in retrovirally transduced primary human T cells, rested or re-activated 16 h with αCD3/αCD28, with or without 500 μM biotin; biotinylated proteins captured from lysate on streptavidin beads and identified by MS; controls UltraID_GFP and no biotin; T cell screens 1 and 2 (the network of Fig 3A also draws on the Jurkat screen); remark: listed apart in the source

Molecule: AGO2 (from UniProt Q9UKV8 1-859)
binding [1]: binds
binding [2]: binds

Molecule: CNOT7 (from UniProt Q9UIV1 1-285)
binding [1]: binds

Molecule: EXOC1 (from UniProt Q9NV70 1-894)
binding [1]: binds

Molecule: EXOC3 (from UniProt O60645 1-745)
binding [1]: binds

Molecule: FXR1 (from UniProt P51114 1-621)
binding [1]: binds
binding [2]: binds

Molecule: FXR2 (from UniProt P51116 1-673)
binding [1]: binds
binding [2]: binds

Molecule: G3BP1 (from UniProt Q13283 1-466)
binding [1]: binds

Molecule: PRRC2A (from UniProt P48634 1-2157)
binding [1]: binds
binding [2]: binds

Molecule: PUM1 (from UniProt Q14671 1-1186)
binding [1]: binds
binding [3]: binds

Molecule: SQSTM1 (from UniProt Q13501 1-440)
binding [1]: binds
binding [2]: binds

Molecule: TNRC6C (from UniProt Q9HCJ0 1-1936)
binding [1]: binds
binding [3]: binds

Molecule: UBAP2L (from UniProt Q14157 1-1087)
binding [1]: binds
binding [3]: binds

Molecule: YBX1 (from UniProt P67809 1-324)
binding [1]: binds
binding [3]: binds
binding [2]: binds

B2: SIRT2 (protein, UniProt Q8IXJ6 1-389)
chain: MAEPDPSHPLETQAGKVQEAQDSDSDSEGGAAGGEADMDFLRNLFSQTLSLGSQKERLLDELTLEGVARYMQSERCRRVICLVGAGISTSAGIPDFRSPSTGLYDNLEKYHLPYPEAIFEISYFKKHPEPFFALAKELYPGQFKPTICHYFMRLLKDKGLLLRCYTQNIDTLERIAGLEQEDLVEAHGTFYTSHCVSASCRHEYPLSWMKEKIFSEVTPKCEDCQSLVKPDIVFFGESLPARFFSCMQSDFLKVDLLLVMGTSLQVQPFASLISKAPLSTPRLLINKEKAGQSDPFLGMIMGLGGGMDFDSKKAYRDVAWLGECDQGCLALAELLGWKKELEDLVRREHASIDAQSGAGVPNPSTSASPKKSPPPAKDEARTTEREKPQ
binding [4]: binds

B3: PARN (protein, UniProt O95453 1-639)
chain: MEIIRSNFKSNLHKVYQAIEEADFFAIDGEFSGISDGPSVSALTNGFDTPEERYQKLKKHSMDFLLFQFGLCTFKYDYTDSKYITKSFNFYVFPKPFNRSSPDVKFVCQSSSIDFLASQGFDFNKVFRNGIPYLNQEEERQLREQYDEKRSQANGAGALSYVSPNTSKCPVTIPEDQKKFIDQVVEKIEDLLQSEENKNLDLEPCTGFQRKLIYQTLSWKYPKGIHVETLETEKKERYIVISKVDEEERKRREQQKHAKEQEELNDAVGFSRVIHAIANSGKLVIGHNMLLDVMHTVHQFYCPLPADLSEFKEMTTCVFPRLLDTKLMASTQPFKDIINNTSLAELEKRLKETPFNPPKVESAEGFPSYDTASEQLHEAGYDAYITGLCFISMANYLGSFLSPPKIHVSARSKLIEPFFNKLFLMRVMDIPYLNLEGPDLQPKRDHVLHVTFPKEWKTSDLYQLFSAFGNIQISWIDDTSAFVSLSQPEQVKIAVNTSKYAESYRIQTYAEYMGRKQEEKQIKRKWTEDSWKEADSKRLNPQCIPYTLQNHYYRNNSFTAPSTVGKRNLSPSQEEAGLEDGVSGEISDTELEQTDSCAEPLSEGRKKAKKLKRMKKELSPAGSISKNSPATLFEVPDTW
binding [4]: binds

B4: NFKBIE (protein, UniProt O00221 1-500)
chain: MNQRRSESRPGNHRLQAYAEPGKGDSGGAGPLSGSARRGRGGGGAIRVRRPCWSGGAGRGGGPAWAVRLPTVTAGWTWPALRTLSSLRAGPSEPHSPGRRPPRAGRPLCQADPQPGKAARRSLEPDPAQTGPRPARAAGMSEARKGPDEAEESQYDSGIESLRSLRSLPESTSAPASGPSDGSPQPCTHPPGPVKEPQEKEDADGERADSTYGSSSLTYTLSLLGGPEAEDPAPRLPLPHVGALSPQQLEALTYISEDGDTLVHLAVIHEAPAVLLCCLALLPQEVLDIQNNLYQTALHLAVHLDQPGAVRALVLKGASRALQDRHGDTALHVACQRQHLACARCLLEGRPEPGRGTSHSLDLQLQNWQGLACLHIATLQKNQPLMELLLRNGADIDVQEGTSGKTALHLAVETQERGLVQFLLQAGAQVDARMLNGCTPLHLAAGRGLMGISSTLCKAGADSLLRNVEDETPQDLTEESLVLLPFDDLKISGKLLLCTD
binding [2]: binds

Second part, the molecule after the results:

binding [1]: binds
Molecule: 4EHP (from UniProt O60573 1-245)

binding [1]: binds
Molecule: CNOT2 (from UniProt Q9NZN8 1-540)

binding [1]: binds
Molecule: CNOT3 (from UniProt O75175 1-753)

binding [1]: binds
Molecule: DCP2 (from UniProt Q8IU60 1-420)

binding [1]: binds
Molecule: EXOC4 (from UniProt Q96A65 1-974)

binding [1]: binds
binding [3]: binds
binding [2]: no binding
Molecule: GIGYF1 (from UniProt O75420 1-1035)

binding [1]: binds
Molecule: NUPL1 (from UniProt Q9BVL2 1-599)

binding [3]: binds
Molecule: TNRC6A (from UniProt Q8NDV7 1-1962)

binding [3]: binds
binding [2]: binds
Molecule: TNRC6B (from UniProt Q9UPQ9 1-1833)

binding [1]: binds
Molecule: YWHAB (from UniProt P31946 1-246)

binding [1]: binds
Molecule: YWHAZ (from UniProt P63104 1-245)

binding [4]: binds
B1: PAN2 (protein, UniProt Q504Q3 1-1202)
chain: MNFEGLDPGLAEYAPAMHSALDPVLDAHLNPSLLQNVELDPEGVALEALPVQESVHIMEGVYSELHSVVAEVGVPVSVSHFDLHEEMLWVGSHGGHATSFFGPALERYSSFQVNGSDDIRQIQSLENGILFLTKNNLKYMARGGLIIFDYLLDENEDMHSLLLTDSSTLLVGGLQNHIIEIDLNTVQETQKYAVETPGVTIMRQTNRFFFCGHTSGKVSLRDLRTFKVEHEFDAFSGSLSDFDVHGNLLAACGFSSRLTGLACDRFLKVYDLRMMRAITPLQVHVDPAFLRFIPTYTSRLAIISQSGQCQFCEPTGLANPADIFHVNPVGPLLMTFDVSASKQALAFGDSEGCVHLWTDSPEPSFNPYSRETEFALPCLVDSLPPLDWSQDLLPLSLIPVPLTTDTLLSDWPAANSAPAPRRAPPVDAEILRTMKKVGFIGYAPNPRTRLRNQIPYRLKESDSEFDSFSQVTESPVGREEEPHLHMVSKKYRKVTIKYSKLGLEDFDFKHYNKTLFAGLEPHIPNAYCNCMIQVLYFLEPVRCLIQNHLCQKEFCLACELGFLFHMLDLSRGDPCQGNNFLRAFRTIPEASALGLILADSDEASGKGNLARLIQRWNRFILTQLHQDMQELEIPQAYRGAGGSSFCSSGDSVIGQLFSCEMENCSLCRCGSETVRASSTLLFTLSYPDGSKSDKTGKNYDFAQVLKRSICLDQNTQAWCDTCEKYQPTIQTRNIRHLPDILVINCEVNSSKEADFWRMQAEVAFKMAVKKHGGEISKNKEFALADWKELGSPEGVLVCPSIEELKNVWLPFSIRMKMTKNKGLDVCNWTDGDEMQWGPARAEEEHGVYVYDLMATVVHILDSRTGGSLVAHIKVGETYHQRKEGVTHQQWYLFNDFLIEPIDKHEAVQFDMNWKVPAILYYVKRNLNSRYNLNIKNPIEASVLLAEASLARKQRKTHTTFIPLMLNEMPQIGDLVGLDAEFVTLNEEEAELRSDGTKSTIKPSQMSVARITCVRGQGPNEGIPFIDDYISTQEQVVDYLTQYSGIKPGDLDAKISSKHLTTLKSTYLKLRFLIDIGVKFVGHGLQKDFRVINLMVPKDQVLDTVYLFHMPRKRMISLRFLAWYFLDLKIQGETHDSIEDARTALQLYRKYLELSKNGTEPESFHKVLKGLYEKGRKMDWKVPEPEGQTSPKNAAVFSSVLAL
